Test system: VIP receptors on neuroblastoma (NMB) cells
Experiment: VIP binding and displacement on intact neuroblastoma (NMB) cells
Set-up: species or system human
Protocol: Alternatively, the VIP was iodinated according to the procedure described by Werner, et al. (Biochem. Biophys. Res. Commun., 133:228-232 (1985)). […] Experiments were repeated at least three times, each containing triplicates, error bars represent the standard error. Cells were grown for 24 hours (circles) and 48 hours (triangles). […] The binding parameters were determined by ACCUFIT program, Lundon-2 competition analysis (LUNDON software Inc., Chargin Falls, Ohio, U.S.A.). […] The calculated Bmax was 6×10^-14 moles/mg and 1.5×10^-14 moles/mg for cells grown for 24 hours as compared to cells grown for 48 hours, respectively.

## CC[C@H](C)[C@H](NC(=O)[C@H](CO)NC(=O)[C@H](CC(N)=O)NC(=O)[C@H](CC(C)C)NC(=O)[C@H](Cc1ccc(O)cc1)NC(=O)[C@H](CCCCN)NC(=O)[C@H](CCCCN)NC(=O)[C@@H](NC(=O)[C@H](C)NC(=O)[C@H](CCSC)NC(=O)[C@H](CCC(N)=O)NC(=O)[C@H](CCCCN)NC(=O)[C@H](CCCNC(=N)N)NC(=O)[C@H](CC(C)C)NC(=O)[C@H](CCCNC(=N)N)NC(=O)[C@@H](NC(=O)[C@H](Cc1ccc(O)cc1)NC(=O)[C@H](CC(N)=O)NC(=O)[C@H](CC(=O)O)NC(=O)[C@@H](NC(=O)[C@H](Cc1ccccc1)NC(=O)[C@@H](NC(=O)[C@H](C)NC(=O)[C@H](CC(=O)O)NC(=O)[C@H](CO)NC(=O)[C@@H](N)Cc1c[nH]cn1)C(C)C)[C@@H](C)O)[C@@H](C)O)C(C)C)C(=O)N[C@@H](CC(C)C)C(=O)N[C@@H](CC(N)=O)C(N)=O [VIP, Vasoactive intestinal polypeptide]
Cells grown for 24 hours
  Bmax: 6e-14 mol/mg
Cells grown for 48 hours
  Bmax: 1.5e-14 mol/mg

From patent US5565424A, “Superactive VIP antagonists” (Ramot - University Authority for Applied Research and …, priority 1994, dated 1996)
